In PMC4113265 (Journal of Natural Products, 2014):

Test system: MIA PaCa-2 cells
Test: MTT antiproliferation/cytotoxicity assay
Type: cell-based, human
Details: MIA PaCa-2, MTT, concentration-response curves (Figure 2A)

SMILES: O=C(CCCCCCC(=O)Nc1ccccc1)NO [SAHA, vorinostat]
- potency relative to 1 in MIA PaCa-2 cells: significantly less active than 1
